Publication doi:10.1101/2024.02.17.580811

The chains behind the UniProt entries cited, without tags or fusion partners.
UniProt P24782: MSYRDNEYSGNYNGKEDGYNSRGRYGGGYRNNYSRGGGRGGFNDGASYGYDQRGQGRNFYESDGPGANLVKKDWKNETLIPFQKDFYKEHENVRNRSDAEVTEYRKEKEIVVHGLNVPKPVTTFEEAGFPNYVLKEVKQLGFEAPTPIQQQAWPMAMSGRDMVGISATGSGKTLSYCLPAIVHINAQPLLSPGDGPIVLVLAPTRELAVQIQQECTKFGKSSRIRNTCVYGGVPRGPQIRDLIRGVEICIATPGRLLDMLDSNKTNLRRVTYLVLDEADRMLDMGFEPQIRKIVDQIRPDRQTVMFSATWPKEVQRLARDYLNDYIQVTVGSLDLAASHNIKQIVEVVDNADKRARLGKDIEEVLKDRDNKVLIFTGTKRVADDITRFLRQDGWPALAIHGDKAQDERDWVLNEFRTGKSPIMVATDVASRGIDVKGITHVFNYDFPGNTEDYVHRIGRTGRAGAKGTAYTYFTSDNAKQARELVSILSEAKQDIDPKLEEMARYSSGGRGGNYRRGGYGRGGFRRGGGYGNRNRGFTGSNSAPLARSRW
UniProt Q92355: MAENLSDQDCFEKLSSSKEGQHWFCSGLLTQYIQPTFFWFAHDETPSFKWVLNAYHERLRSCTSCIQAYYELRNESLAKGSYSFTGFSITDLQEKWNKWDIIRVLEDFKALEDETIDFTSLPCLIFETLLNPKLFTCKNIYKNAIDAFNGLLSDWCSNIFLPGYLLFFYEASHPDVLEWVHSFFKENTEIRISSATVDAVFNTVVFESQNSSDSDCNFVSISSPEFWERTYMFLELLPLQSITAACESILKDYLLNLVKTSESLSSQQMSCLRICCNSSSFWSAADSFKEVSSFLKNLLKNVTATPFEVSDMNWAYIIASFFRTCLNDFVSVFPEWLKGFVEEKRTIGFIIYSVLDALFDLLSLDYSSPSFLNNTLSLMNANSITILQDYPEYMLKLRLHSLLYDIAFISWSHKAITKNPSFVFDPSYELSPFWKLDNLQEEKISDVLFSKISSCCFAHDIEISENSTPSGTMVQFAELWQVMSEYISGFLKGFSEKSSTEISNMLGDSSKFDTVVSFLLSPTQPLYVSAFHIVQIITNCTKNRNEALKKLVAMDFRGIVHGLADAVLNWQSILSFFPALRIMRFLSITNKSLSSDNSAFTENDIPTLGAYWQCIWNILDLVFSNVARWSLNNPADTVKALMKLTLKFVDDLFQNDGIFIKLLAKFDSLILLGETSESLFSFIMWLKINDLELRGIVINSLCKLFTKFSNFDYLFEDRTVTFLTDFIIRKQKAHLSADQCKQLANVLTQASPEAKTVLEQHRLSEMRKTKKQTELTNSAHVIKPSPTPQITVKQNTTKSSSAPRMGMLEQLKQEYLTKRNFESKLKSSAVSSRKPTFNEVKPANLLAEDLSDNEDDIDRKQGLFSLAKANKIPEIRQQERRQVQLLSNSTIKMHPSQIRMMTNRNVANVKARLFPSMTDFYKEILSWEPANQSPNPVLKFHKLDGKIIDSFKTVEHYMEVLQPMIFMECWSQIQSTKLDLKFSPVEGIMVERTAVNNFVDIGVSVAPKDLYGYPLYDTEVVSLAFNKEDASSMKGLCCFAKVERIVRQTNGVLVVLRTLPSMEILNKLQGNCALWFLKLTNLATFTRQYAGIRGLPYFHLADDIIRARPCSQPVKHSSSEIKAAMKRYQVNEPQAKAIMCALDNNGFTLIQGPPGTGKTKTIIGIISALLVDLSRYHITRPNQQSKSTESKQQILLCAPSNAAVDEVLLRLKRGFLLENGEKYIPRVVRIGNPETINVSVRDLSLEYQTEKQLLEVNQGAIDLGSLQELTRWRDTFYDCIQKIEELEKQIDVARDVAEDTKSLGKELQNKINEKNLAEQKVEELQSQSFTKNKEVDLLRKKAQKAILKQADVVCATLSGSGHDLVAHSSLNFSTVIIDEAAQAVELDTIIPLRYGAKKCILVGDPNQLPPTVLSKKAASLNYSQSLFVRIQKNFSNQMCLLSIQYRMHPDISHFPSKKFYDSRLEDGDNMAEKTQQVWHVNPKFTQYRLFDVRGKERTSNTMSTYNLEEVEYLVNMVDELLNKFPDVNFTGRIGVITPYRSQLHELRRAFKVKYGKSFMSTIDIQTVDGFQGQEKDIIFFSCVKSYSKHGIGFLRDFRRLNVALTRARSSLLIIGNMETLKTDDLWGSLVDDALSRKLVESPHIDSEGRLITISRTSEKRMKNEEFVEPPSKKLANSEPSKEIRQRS
UniProt Q9UTN6: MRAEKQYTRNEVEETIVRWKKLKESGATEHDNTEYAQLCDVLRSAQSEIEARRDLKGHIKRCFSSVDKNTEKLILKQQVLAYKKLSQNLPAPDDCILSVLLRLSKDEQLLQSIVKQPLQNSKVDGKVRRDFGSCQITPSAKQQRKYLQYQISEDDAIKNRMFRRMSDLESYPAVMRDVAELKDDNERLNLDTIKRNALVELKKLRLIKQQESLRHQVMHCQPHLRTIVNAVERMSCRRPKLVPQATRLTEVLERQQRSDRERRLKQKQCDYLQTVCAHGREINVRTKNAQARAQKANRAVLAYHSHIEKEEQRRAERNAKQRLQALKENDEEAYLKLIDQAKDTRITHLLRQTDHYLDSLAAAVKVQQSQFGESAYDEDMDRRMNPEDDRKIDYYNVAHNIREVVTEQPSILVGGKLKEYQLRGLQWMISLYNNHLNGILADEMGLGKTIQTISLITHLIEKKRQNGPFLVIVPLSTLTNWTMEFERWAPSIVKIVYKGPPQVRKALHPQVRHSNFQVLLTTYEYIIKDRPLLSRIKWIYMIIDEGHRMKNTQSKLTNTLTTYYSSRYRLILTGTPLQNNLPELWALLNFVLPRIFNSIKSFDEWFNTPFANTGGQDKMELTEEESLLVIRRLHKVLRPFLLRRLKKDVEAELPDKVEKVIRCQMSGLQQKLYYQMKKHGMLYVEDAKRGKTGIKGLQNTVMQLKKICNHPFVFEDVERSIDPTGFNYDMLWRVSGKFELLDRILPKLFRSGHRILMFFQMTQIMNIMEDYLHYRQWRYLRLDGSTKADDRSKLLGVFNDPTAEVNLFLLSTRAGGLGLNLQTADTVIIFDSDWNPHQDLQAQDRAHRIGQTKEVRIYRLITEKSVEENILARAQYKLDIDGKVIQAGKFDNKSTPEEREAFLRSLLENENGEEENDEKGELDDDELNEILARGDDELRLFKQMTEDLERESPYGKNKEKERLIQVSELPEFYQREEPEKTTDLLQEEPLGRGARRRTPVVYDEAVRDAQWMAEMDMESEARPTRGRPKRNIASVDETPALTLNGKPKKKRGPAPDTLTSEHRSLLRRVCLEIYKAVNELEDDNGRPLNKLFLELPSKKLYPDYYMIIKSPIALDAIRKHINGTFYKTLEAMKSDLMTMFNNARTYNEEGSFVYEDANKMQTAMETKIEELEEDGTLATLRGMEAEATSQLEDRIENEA

Key:
Dbp2-HTP (S. pombe) = Dbp2-HTP (S. pombe) (UniProt P24782); assay: affinity purification with mass spectrometry
Srp2-HTP (S. pombe) = biological target: T1, Srp2-HTP (S. pombe) (UniProt P78814); assay: affinity purification with mass spectrometry
T1 sequence: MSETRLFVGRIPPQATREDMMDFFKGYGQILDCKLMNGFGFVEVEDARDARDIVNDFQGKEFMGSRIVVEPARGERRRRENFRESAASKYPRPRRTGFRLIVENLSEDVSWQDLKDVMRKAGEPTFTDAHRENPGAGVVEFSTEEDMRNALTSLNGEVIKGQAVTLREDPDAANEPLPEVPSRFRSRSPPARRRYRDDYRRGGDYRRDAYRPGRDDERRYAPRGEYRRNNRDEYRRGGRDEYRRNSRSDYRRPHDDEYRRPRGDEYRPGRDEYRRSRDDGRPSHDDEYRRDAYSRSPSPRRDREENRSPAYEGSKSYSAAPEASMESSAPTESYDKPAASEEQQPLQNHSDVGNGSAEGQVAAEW

| Substance | binding (Dbp2-HTP (S. pombe)) | binding (Srp2-HTP (S. pombe)) |
| --- | --- | --- |
| RNA/DNA helicase Sen1 (from UniProt Q92355 1-1687) (enzyme) | binds | binds |
| Snf21 (from UniProt Q9UTN6 1-1199) | binds |  |

These are yes or no findings as the source states them, for the method shown. Binding seen in cells or lysates may run through a third protein. A yes stands for co-enrichment or nearness to the bait. Other partners may have been found.
